Reference: US6673585
For at least one entry, the source does not settle the construct or the ends of the probe. Tags and fusion partners may be left off the protein sequences shown.

Target: T1, Pab DNA polymerase (Pyrococcus sp. GE 5) (Pyrococcus abyssi GE5) (UniProt P0CL77)
T1 sequence: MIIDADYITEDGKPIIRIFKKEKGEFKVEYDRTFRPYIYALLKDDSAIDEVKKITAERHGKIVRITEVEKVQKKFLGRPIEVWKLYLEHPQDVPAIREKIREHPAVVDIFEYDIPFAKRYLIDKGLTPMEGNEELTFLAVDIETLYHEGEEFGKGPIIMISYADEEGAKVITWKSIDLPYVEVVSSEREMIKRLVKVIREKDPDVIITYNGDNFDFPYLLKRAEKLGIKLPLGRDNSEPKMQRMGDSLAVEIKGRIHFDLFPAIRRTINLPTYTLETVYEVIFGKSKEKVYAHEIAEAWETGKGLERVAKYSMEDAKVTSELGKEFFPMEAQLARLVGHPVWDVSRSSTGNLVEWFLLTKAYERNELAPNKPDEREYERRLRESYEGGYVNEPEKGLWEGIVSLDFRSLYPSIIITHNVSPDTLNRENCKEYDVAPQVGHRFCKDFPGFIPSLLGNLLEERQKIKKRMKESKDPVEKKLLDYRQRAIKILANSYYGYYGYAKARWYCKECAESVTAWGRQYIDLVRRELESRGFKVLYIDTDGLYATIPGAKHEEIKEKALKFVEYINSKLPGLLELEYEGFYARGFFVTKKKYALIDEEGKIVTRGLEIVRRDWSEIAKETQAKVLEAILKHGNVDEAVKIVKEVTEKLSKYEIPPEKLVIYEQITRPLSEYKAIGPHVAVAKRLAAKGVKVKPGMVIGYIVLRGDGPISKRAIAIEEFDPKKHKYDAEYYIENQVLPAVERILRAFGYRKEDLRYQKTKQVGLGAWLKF
Assay: binding assay
Details: PCR, 420-bp product from 0.5 ng to 1 ug template; 3 mM MgSO4, 50 mM KCl, pH 9.0; purified recombinant protein; only the site is given

“TCACCTTAGGGTTGCCCATAA / TGGGCATAAAAGTCAGGGCAG”: binds.
